# From patent publication US20080193619A1, “Use of Fullerence C60 as an Oil Stabilizer” (UNI PHARMA HOLDING AS, priority 2005, published 2008)
# Assay: Organoleptic testing (taste and smell) of stabilized salmon oil
# Settings: after 17 months, salmon oil containing the additive
# Protocol: With basis in salmon oil as a nutritional supplement, organoleptic characteristics (determination of the quality of the oil by taste and smell) are also of importance. Standardized methods for organoleptic testing were utilized: one drop of salmon oil was placed on the arm and applied in a thin layer by means of a piece of glass. After one minute the quality of the oil could be determined by taste and smell. Five different individuals were tested, once per week, to obtain independent results. […] Both smell and taste was satisfactory at this point in time, and better for fullerene, witch kept well for 600 days, than for rosemary, witch only kept for 300 days.
compound,measurement,value
c12c3c4c5c1c1c6c7c2c2c8c3c3c9c4c4c%10c5c5c1c1c6c6c%11c7c2c2c7c8c3c3c8c9c4c4c9c%10c5c5c1c1c6c6c%11c2c2c7c3c3c8c4c4c9c5c1c1c6c2c3c41 [fullerene C60],smell and taste of the oil,satisfactory
same,user applicability of the oil,good user applicability
